In all, about 3,200 compounds were measured (“TSA(without NAD+) / Primary screening (TSA) / delta Tm (K)”: median about -0.07, highest 2% from about 0.37 on). This is one part of the list.
Biological target: NAD-dependent deacetylase Sirtuin 1 (human, UniProt Q96EB6)
Test: primary screen, delta tm
Set-up: single well (n = 1)
Conditions: 10 µM
How it was run: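 Thermal shift of Sirtuin 1 measured without NAD+, compound at 10 µM (n = 1); value is ΔTm, with hits defined as ΔTm > 0.45 K or < −1.5 K. Hits retested at 5, 10, 20 µM (n = 4) and counterscreened on bovine carbonic anhydrase and ABL1 SH2 domain.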

The chains behind the UniProt entries cited, without tags or fusion partners. Residues count along the entry.
UniProt Q96EB6, 2-747 limits assumed: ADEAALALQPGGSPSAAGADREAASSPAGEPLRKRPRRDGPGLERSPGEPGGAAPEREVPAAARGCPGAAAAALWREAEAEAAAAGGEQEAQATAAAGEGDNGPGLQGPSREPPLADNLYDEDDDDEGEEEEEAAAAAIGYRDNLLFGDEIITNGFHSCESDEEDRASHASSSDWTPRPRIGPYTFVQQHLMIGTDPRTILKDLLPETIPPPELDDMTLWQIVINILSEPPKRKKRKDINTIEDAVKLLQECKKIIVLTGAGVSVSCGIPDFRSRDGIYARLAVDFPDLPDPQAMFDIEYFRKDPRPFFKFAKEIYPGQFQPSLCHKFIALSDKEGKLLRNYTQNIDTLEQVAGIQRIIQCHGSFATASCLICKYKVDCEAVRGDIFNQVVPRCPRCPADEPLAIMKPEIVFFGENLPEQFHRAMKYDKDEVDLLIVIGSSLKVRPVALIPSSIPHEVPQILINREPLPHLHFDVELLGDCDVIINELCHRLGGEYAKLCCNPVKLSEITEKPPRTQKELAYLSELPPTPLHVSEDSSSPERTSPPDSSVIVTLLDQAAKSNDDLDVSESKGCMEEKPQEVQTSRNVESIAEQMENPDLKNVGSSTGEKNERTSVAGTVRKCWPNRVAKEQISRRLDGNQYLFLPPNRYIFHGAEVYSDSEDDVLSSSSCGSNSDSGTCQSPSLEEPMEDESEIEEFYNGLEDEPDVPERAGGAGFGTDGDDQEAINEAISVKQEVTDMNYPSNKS

| Compound | TSA(without NAD+) / Primary screening (TSA) / delta Tm (K) |
| --- | --- |
| CCCOC(=O)c1ccc(NC(=O)c2cccc(S(=O)(=O)N(C)c3ccc(OC)cc3)c2)cc1 | 0.35 K |
| COc1cccc(CSC(C)C(N)=O)c1 (stereo not drawn) | 0.07 K |
| NC(=O)CC1CCN(C(=O)c2ccn(-c3cccc(F)c3)n2)CC1 | -0.12 K |
| C#CCNC(=O)c1ccc2[nH]c3c(c2c1)CCCC3 | -0.32 K |
| Cc1[nH]c(-c2cccc(Cl)c2)nc1C(=O)Nc1ccc(F)c(C(N)=O)c1 | -0.12 K |
| Oc1ccc(N2CCN(c3ncnc4sc5c(c34)CCC5)CC2)cc1 | -0.33 K |
| Cc1cc(C)c2cc(CN3CCC(C(N)=O)CC3)[nH]c2c1 | -0.05 K |
| O=C(O)CSc1ccc2c3c(cccc13)C(=O)c1ccccc1-2 | -0.33 K |
| CCOC(=O)C(C)N1CCN(S(=O)(=O)c2cc(C(N)=O)n(C)c2)CC1 (stereo not drawn) | -0.07 K |
| CCN(C(=O)c1ccc(Br)cc1F)c1ccncc1 | -0.03 K |
| NC(=O)c1cc(-c2ccccc2)nc2ccccc12 | -0.02 K |
| CCc1cc2c(N3CCC(CCN4CCN(C)CC4)CC3)ncnc2s1 | -0.22 K |
| CN(c1cccc(Cl)c1)S(=O)(=O)c1cccc(C(=O)Nc2ccc(C(N)=O)cc2)c1 | 0.08 K |
| Cc1ccc(N)c(OCC(F)(F)F)c1 | -0.02 K |
| CC(CC(=O)N1CCN(c2ccc3nccnc3n2)CC1)c1ccccc1 (stereo not drawn) | -0.12 K |
| Cc1ccc(-n2c(C)c(C)c3c(N)ncnc32)cc1 | 0.02 K |
| C[C@H](N)C(N)=O | 0.09 K |
| CC(C)(C)c1cc(NC(=O)CSc2nnc(NCc3ccco3)s2)on1 | -0.17 K |
| COC(=O)C[C@H](N)C(=O)O | 0.08 K |
| COc1ccc(C(=O)C2=C(O)C(=O)N(CCCN3CCOCC3)C2c2cccs2)cc1C (stereo not drawn) | -0.13 K |
| COc1cc(CNC(=O)C2(C)CCOCC2)c2ccccc2n1 | 0.03 K |
| Cn1c(=O)[nH]c2ccc(C(=O)O)cc21 | 0.17 K |
| COc1ccc(CNCc2ccc(N3CCCC3=O)cc2)c(OC)c1 | -0.05 K |
| Cc1ccc(C(=O)C2=C(O)C(=O)N(CCCN3CCOCC3)C2c2cccc([N+](=O)[O-])c2)cc1 (stereo not drawn) | -0.13 K |

| Compound | TSA(without NAD+) / Primary screening (TSA) / delta Tm (K) |
| --- | --- |
| Cc1ccc(N(C)S(=O)(=O)c2cccc(C(=O)OCc3ccc(Cl)cc3)c2)cc1 | 0.06 K |
| O=C(CSc1nnc(Nc2cccc(F)c2)s1)NCc1ccco1 | -0.03 K |
| Cc1nc(-c2ccc(CCNC(=O)c3ccc(NC(=O)c4cccs4)cc3)s2)cs1 | 0.63 K |
| OC(CNc1ncccn1)c1ccc(Cl)cc1 (stereo not drawn) | -0.31 K |
| Cc1ccc(C(=O)OCC(=O)Nc2c(C)n(C)n(-c3ccccc3)c2=O)cc1O | -0.17 K |
| Cc1cccc(-c2cccc(CNC(=O)c3cccnc3S)c2)c1 | 0.18 K |
| Cc1nn(Cc2ccc(Cl)cc2)c(Cl)c1-c1nc(-c2ccccc2)c(-c2ccccc2)[nH]1 | -0.03 K |
| Cc1nc(NCCc2ccccc2)sc1C(=O)O | -0.03 K |
| C=C(CC)CN | -0.12 K |
| NCCCN | -0.21 K |
| Nc1ccnn1Cc1ccc(Cl)cc1Cl | -0.15 K |
| O=C1NC(=S)NC(=O)C1=CNc1ccc(Cl)c(Cl)c1 | -0.18 K |
| COc1ccc(OC)c(NCCn2c(C)cn3c4c(=O)[nH]c(=O)n(C)c4nc23)c1 | -0.54 K |
| Oc1c(Br)cc2oc3c(c2c1/C=N/c1cccc2ccccc12)CCCC3 | 0.07 K |
| O=Cc1cn(CCC(=O)O)nc1-c1ccccc1 | -0.08 K |
| COc1cc2c(cc1OC)CN(C(=O)c1cccc(S(=O)(=O)Nc3ccc(F)cc3)c1)CC2 | -0.04 K |
| NC(=O)c1ccc(CNC2CCCCCC2)o1 | -0.05 K |
| CN(c1ccccc1)S(=O)(=O)c1cccc(C(=O)NCCCOCCc2ccccc2)c1 | -0.18 K |
| CCc1ccc(C(NCC(=O)Nc2oc(C)c3c(C)n[nH]c(=O)c23)C(C)C)cc1 (stereo not drawn) | -0.18 K |
| O=C(O)C1CC(=O)N(c2ccc(S(=O)(=O)Nc3cccc([N+](=O)[O-])c3)cc2)C1 (stereo not drawn) | -0.18 K |
| CN1C(=O)c2oc3ccccc3c(=O)c2C1c1ccccc1F (stereo not drawn) | -0.13 K |
| O=Cc1c[nH]nc1-c1ccc2c(c1)OCO2 | -0.12 K |
| COC(=O)c1ccc2[nH]c(CNC(=O)CSC)nc2c1 | -0.02 K |
| O=C(NCC1CC2c3ccccc3C1c1ccccc12)Nc1cccnn1 (stereo not drawn) | -0.02 K |

Some of these compounds in order of length of the SMILES, low to high:

| Compound | TSA(without NAD+) / Primary screening (TSA) / delta Tm (K) |
| --- | --- |
| NC(=O)c1ccc(CNC2CCCCCC2)o1 | -0.05 K |
| CCN(C(=O)c1ccc(Br)cc1F)c1ccncc1 | -0.03 K |
| CN1C(=O)c2oc3ccccc3c(=O)c2C1c1ccccc1F (stereo not drawn) | -0.13 K |
| COc1ccc(CNCc2ccc(N3CCCC3=O)cc2)c(OC)c1 | -0.05 K |
| CCc1cc2c(N3CCC(CCN4CCN(C)CC4)CC3)ncnc2s1 | -0.22 K |
| CC(C)(C)c1cc(NC(=O)CSc2nnc(NCc3ccco3)s2)on1 | -0.17 K |
| CN(c1ccccc1)S(=O)(=O)c1cccc(C(=O)NCCCOCCc2ccccc2)c1 | -0.18 K |

(list continues)

| Compound | TSA(without NAD+) / Primary screening (TSA) / delta Tm (K) |
| --- | --- |
| CC(N)CCCN (stereo not drawn) | 0.08 K |
| CCN(CC)S(=O)(=O)c1cccc(C(=O)N[C@H](C(=O)NCC23CC4CC(CC(C4)C2)C3)C(C)C)c1 | -0.03 K |
| CN(Cc1cnccn1)C(=O)Nc1ccc2c(c1)CCCN2C | -0.23 K |
| Cn1c(-c2ccccc2)c(CO)c2ccccc21 | -0.07 K |
| CCOCc1cn(CC(=O)c2ccc(CC)cc2)c(C)nc1=N | -0.14 K |
| CC(N)CCCO (stereo not drawn) | -0.22 K |
| O=C(NC1CCOc2ccccc21)c1ccc2c(=O)n3c(nc2c1)CCC3 (stereo not drawn) | -0.08 K |
| CC(Nc1ccnc(CC#N)c1)C(=O)N1CCCCC1C (stereo not drawn) | -0.28 K |
| COc1ccc(NC(=O)C2=COCCO2)cc1Cc1ccccc1 | 0.45 K |
| CN(c1ccc(OCc2ccccc2C#N)cc1)S(=O)(=O)c1ccccc1 | -0.12 K |
| COc1ccc(N(C)S(=O)(=O)c2cccc(C(=O)Nc3ccc(OC)c(OC)c3)c2)cc1 | -0.31 K |
| NC(=O)c1cccc(CCNC(=O)CCC(=O)c2ccc3c(c2)OCCO3)c1 | -0.24 K |
| O=C1NC(=S)N/C1=C/c1ccc(-c2ccccc2F)o1 | 0.05 K |
| NC(=O)c1cc2c(ccc3ccccc32)o/c1=N\c1ccc(Br)cc1 | -0.32 K |
| CCCOc1ccc(C(=O)C2=C(O)C(=O)N(CCN3CCOCC3)C2c2ccco2)cc1 (stereo not drawn) | -0.02 K |
| COc1cccc(N2CCCC(NC(=O)CCc3cnccn3)C2)c1 (stereo not drawn) | -0.14 K |
| NC(=O)c1ccc(NC(=O)CSc2nnc(-c3ccc4c(c3)OCO4)o2)cc1 | -0.03 K |
| O=C(C1=C(O)C(=O)N(CCCN2CCOCC2)C1c1ccccn1)c1ccco1 (stereo not drawn) | -0.08 K |
| COC(=O)c1ccc2[nH]c3c(c2c1)CN(S(C)(=O)=O)CC3 | -0.03 K |
| O=C1NC(=O)C(=Cc2cn(-c3ccccc3)nc2-c2cc3ccccc3oc2=O)C(=O)N1 | -0.43 K |
| Cn1c(COc2nc(-c3ccccc3Cl)no2)cc(=O)n(C)c1=O | -0.05 K |
| Nc1ncnc(N2Cc3cccc(Br)c3C2)c1Cl | -0.21 K |
| COc1cccc(CCNC(C(N)=O)c2ccccc2)c1 (stereo not drawn) | -0.13 K |
| O=C1CCc2cc(NC(=O)c3cccnc3)ccc2N1 | -0.04 K |

| Compound | TSA(without NAD+) / Primary screening (TSA) / delta Tm (K) |
| --- | --- |
| O=C(c1sc2ccccc2c1Cl)N1CCCN(c2nnc(C(F)(F)F)s2)CC1 | -0.13 K |
| COc1ccc(C)cc1NCCn1c(C)c(C)n2c3c(=O)[nH]c(=O)n(C)c3nc12 | -0.08 K |
| COc1ccc(CC(=O)NCCNC(=O)c2ccc(C)c(F)c2)cc1 | -0.14 K |
| COC(=O)c1cc(NC(=O)CN2C(=O)NC(C)(c3ccc4ccccc4c3)C2=O)cc(C(=O)OC)c1 (stereo not drawn) | 0.15 K |
| Cc1ccc2c(CC(=O)Nc3ccccc3Cc3ccccc3)coc2c1 | 0.07 K |
| CN(Cc1ccccc1)C(=O)NCC1CCN(c2ccncc2)CC1 | -0.02 K |
| CN(c1ccc(O)cc1)S(=O)(=O)c1ccc2ccccc2c1 | 0.07 K |
| O=C(Oc1ccc2oc3ccccc3c2c1)c1ccc([N+](=O)[O-])cc1 | -0.02 K |
| CCCN(CC(=O)Nc1ccc(C(N)=O)cc1)CC(=O)Nc1ccccc1C | 0.08 K |
| Cc1ccc(C(=O)C2=C(O)C(=O)N(CCCN3CCOCC3)C2c2ccc([N+](=O)[O-])cc2)cc1 (stereo not drawn) | 0.07 K |
| O=S(=O)(c1cccc(Br)c1)N1CCN(c2ncnc3cc(Cl)ccc23)CC1 | 0.07 K |
| CN(CC(=O)Nc1ccc(Cl)cc1)C(=O)c1ccccc1SCC(=O)NC12CC3CC(CC(C3)C1)C2 | -0.31 K |
| O=C1CCC(C(=O)Nc2cccc(Cn3cnc4ccccc43)c2)N1 (stereo not drawn) | -0.22 K |
| Sc1nc2ccccc2c2nc(-c3cc4ccccc4o3)nn12 | -0.03 K |
| c1coc(CNc2ncnc3ccsc23)c1 | 0.05 K |
| N#Cc1ccc(S(=O)(=O)NCc2ccc(S(N)(=O)=O)s2)cc1 | -0.13 K |
| CC(C(N)=O)N(C)Cc1ccccc1Cl (stereo not drawn) | -0.08 K |
| CCn1c2ccccc2c2cc(NC(=O)C(C)OC(=O)c3cccc(S(=O)(=O)Nc4ccc(Cl)cc4)c3)ccc21 (stereo not drawn) | 0.56 K |
| CC(NC(=O)COC(=O)c1ccccc1C(=O)N1CCN(c2ccccc2)CC1)C12CC3CC(CC(C3)C1)C2 (stereo not drawn) | -0.51 K |
| Cc1ccc(OCCN)cc1 | -0.18 K |
| CC(OC(=O)c1cccc(S(=O)(=O)Nc2ccc(F)cc2)c1)c1nc2ccccc2c(=O)[nH]1 (stereo not drawn) | 0.02 K |
| Cc1ccc(CSc2nc3ccsc3c(=O)n2C)cc1 | -0.01 K |
| CC(C)C(NC(=O)c1ccco1)C(=O)NNC(=O)C1CC1 (stereo not drawn) | -0.22 K |
| CN(CC(=O)Nc1ccc(Cl)cc1)C(=O)CCn1ccc2ccccc21 | 0.25 K |

— paper PMC6925144, “A prospective compound screening contest identified broader inhibitors for Sirtuin 1” (Scientific Reports, 2019)
